Measured values: patent US20130078216A1 (published 2013)
Results are given in words; binding and its absence hold for the method and conditions named. Some results given as binding are weak or reduced against the parent protein; the word gives no strength.

T1: mouse ASGPR on the murine liver cell line Hepa1c1c7 (and on mouse liver in vivo) (mouse) (UniProt P34927)
T1 sequence (looked up): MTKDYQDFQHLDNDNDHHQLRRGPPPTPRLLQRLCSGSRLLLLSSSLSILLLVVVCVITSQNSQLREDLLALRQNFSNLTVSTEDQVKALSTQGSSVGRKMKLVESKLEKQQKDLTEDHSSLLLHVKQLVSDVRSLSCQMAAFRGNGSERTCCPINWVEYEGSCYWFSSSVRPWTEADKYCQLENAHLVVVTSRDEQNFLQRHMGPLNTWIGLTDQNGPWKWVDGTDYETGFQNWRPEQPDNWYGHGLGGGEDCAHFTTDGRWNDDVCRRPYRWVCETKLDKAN

T2: human ASGPR on the human liver cell line HepG2 (human) (UniProt P07306)
T2 sequence (looked up): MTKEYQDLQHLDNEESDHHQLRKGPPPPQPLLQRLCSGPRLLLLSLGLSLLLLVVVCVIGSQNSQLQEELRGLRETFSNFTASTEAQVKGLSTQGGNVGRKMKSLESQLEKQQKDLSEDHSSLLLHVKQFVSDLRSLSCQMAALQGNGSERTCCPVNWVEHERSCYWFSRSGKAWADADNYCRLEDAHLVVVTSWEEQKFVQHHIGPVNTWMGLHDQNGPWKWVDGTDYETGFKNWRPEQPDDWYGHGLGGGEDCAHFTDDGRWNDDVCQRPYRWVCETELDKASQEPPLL


What follows are binders tested against T1, mouse ASGPR on the murine liver cell line Hepa1c1c7 (and on mouse liver in vivo) (mouse) (assay: immunofluorescence confocal microscopy, 5 µM FLAG-tagged dAb on Hepa1c1c7 cells, anti-FLAG M2-Cy3).

binding | Binder
binds | DOM26m-33 (protein, not shown: small tags and cut ends) VH: EVQLLESGGGLVQPGGSLRLSCAASGFTFAKYDMIWVRQAPGKGLEWVSGINHSGSRTYYADSVKGRFTISRDNSKNMLYLQMNSLRAEDTAVYYCAKSGSSFDYWGQGTLVTVSS

What follows are binders tested against T1, mouse ASGPR on the murine liver cell line Hepa1c1c7 (and on mouse liver in vivo) (mouse) (assay: immunofluorescence confocal microscopy, 5 µM FLAG-tagged dAb on Hepa1c1c7 cells, anti-FLAG M2 Cy3).

binding | Binder
binds | DOM26m-33 (protein, not shown: small tags and cut ends) VH: EVQLLESGGGLVQPGGSLRLSCAASGFTFAKYDMIWVRQAPGKGLEWVSGINHSGSRTYYADSVKGRFTISRDNSKNMLYLQMNSLRAEDTAVYYCAKSGSSFDYWGQGTLVTVSS

Each binder was assayed against T2, human ASGPR on the human liver cell line HepG2 (human) (assay: flow cytometry cell binding assay, FLAG-tagged dAb cross-linked with anti-FLAG M2, HepG2 cells (members in Table 2)).

binding | Binder
binds | DOM26h-162 (protein, not shown: small tags and cut ends) VL: DIQMTQSPSSLSASVGDRVTITCRASMSIDESLWWYQQKPGKAPKLLIRGGSGLQSGVPSRFSGSGSGTDFTLTISSLQPEDFATYYCGQAARRPYTFGQGTKVEIKR
binds | DOM26h-166 (protein, not shown: small tags and cut ends) VL: DIQMTQSPSSLSASVGDRVTITCRASSYIGGELWWYQQKPGKAPKLLISGTSGLQSGVPSRFSGSGSGTDFTLTISSLQPEDFATYYCGQAAKRPFTFGQGTKVEIKR
binds | DOM26h-25 (protein, not shown: small tags and cut ends) VL: DIQMTQSPSSLSASVGDRVTITCRASGDIGHALWWYQQKPGKAPKLLIRGGSALQSGVPSRFSGSGSGTDFTLTISSLQPEDFATYYCGQSHVRPFTFGQGTKVEIKR
binds | DOM26h-163 (protein, not shown: small tags and cut ends) VL: DIQMTQSPSSLSASVGDRVTITCRASHYIGNELWWYQQKPGKAPKLLIRRGSGLQSGVPSRFSGSGSGTDFTLTISSLQPEDFATYYCGQARHRPYTFGQGTRVEIKR
binds | DOM26h-99 (protein, not shown: small tags and cut ends) VH: EVQLLESGGGLVQPGGSLRLSCAASGFTFKPYAMHWVRQAPGKGLEWVSSISSTGLSTYYADSVKGRFTISRDNSKNTLYLQMNSLRAEDTAVYYCAKDASRFRQPFDYWGQGTLVTVSS
binds | DOM26h-110 (protein, not shown: small tags and cut ends) VH: EVQLLESGGGLVQPGGSLRLSCAASGFTFSANGMHWVRQAPGKGLEWVSVISATGDQTYYADSVKGRFTISRDNSKNTLYLQMNSLRAEDTAVYYCAKGYDRRHRKFDYWGQGTLVTVSS
binds | DOM26h-164 (protein, not shown: small tags and cut ends) VL: DIQMTQSPSSLSASVGDRVTITCRASSNIGRSLVWYQQKPGKAPKLLIAGGSLLQSGVPSRFSGSGSGTDFTLTISSLQPEDFATYYCGQYAEEPFTFGQGTRVEIKR
binds | DOM26h-167 (protein, not shown: small tags and cut ends) VL: DIQMTQSPSSLSASVGDRVTITCRASSWINSDLVWYQQKPGEAPKLLIAGGSLLQSGVPSRFSGSGSGTDFTLTISSLQPEDFATYYCGQYLEEPYTFGQGTKVEVKR
binds | DOM26h-165 (protein, not shown: small tags and cut ends) VL: DIQMTQSPSSLSASVGDRVTITCRASVKIGERLWWYQQKPGEAPKLLIRDASLLQSGVPSRFSGSGSGTDFTLTISSLQPEDFATYYCGQSWMRPYTFGQGTKVEIKR
binds | DOM26h-34 (protein, not shown: small tags and cut ends) VL: DIQMTQSPSSLSASVGDRVTITCQASKNIGERLVWYQQKPGKAPKLLIGFASLLQSGVPSRFSGSGSGTDFTLTISSLQPEDFATYYCGQYRWVPATFGQGTKVEIKR
binds | DOM26h-104 (protein, not shown: small tags and cut ends) VH: EVQLLESGGGLVQPGGSLRLSCAASGFTFPKYGMAWVRQAPGKGLEWVSRIGATGSETYYADSVKGRFTISRDNSKNTLYLQMNSLRAEDTAVYYCAKHRGTAHSSFFDYWGQGTLVTVSS
binds | DOM26h-159 (protein, not shown: small tags and cut ends) VH: EVQLLESGGGLVQPGGSLRLSCAASGFTFADYSMYWVRQAPGKGLEWVSDISPSGSMTYYADSVKGRFTISRDNSKNTLYLQMNSLRAEDTAVYYCAKGLPGQNMHVGFDYWGQGTLVTVSS
binds | DOM26h-61 (other, not shown: small tags and cut ends, human VH domain antibody (dAb); also called VH dAb DOM26h-61) VH: EVQLLESGGGLVQPGGSLRLSCAASGFTFSTYPMHWARQAPGKGLEWVSSISPSGDSTYYADSVKGRFTISRDNSKNTLYLQMNSLRAEDTAVYYCAKNALRFDYWGQGTLVTVSS
binds | DOM26h-161 (protein, not shown: small tags and cut ends) VL: DIQMTQSPSSLSASVGDRVTITCRASQAIGRWLLWYQQKPGKAPKLLIYAASRLQSGVPSRFSGSGSGTDFTLTISSLQPEDFATYYCQQAYSLPPTFGQGTKVEIKR

These binders were tested against T1, mouse ASGPR on the murine liver cell line Hepa1c1c7 (and on mouse liver in vivo) (mouse) (assay: flow cytometry cell binding assay, FLAG-tagged dAb cross-linked with anti-FLAG M2, Hepa1c1c7 cells (members in Table 3)).

binding | Binder
binds | DOM26m-7 (other, not shown: small tags and cut ends, human VH domain antibody (dAb) selected on mouse ASGPR H1) VH: EVQLLESGGGLVQPGGSLRLSCAASGFTFDDYEMGWVRQAPGKGLEWVSLISAQGRVTYYADSVKGRFTISRDNSKNTLYLQMNSLRAEDTAVYYCAKNSPSYLLNFDYWGQGTLVTVSS
binds | DOM26m-54 (other, not shown: small tags and cut ends, human Vκ domain antibody (dAb) selected on mouse ASGPR H1) VL: DIQMTQSPSSLSASVGDRVTITCRASLNIDTDLVWYQQKPGKAPKLLIAGWSGLQSGVPSRFSGSGSGTDFTLTISSLQPEDFATYYCGQFAREPFTFGQGTKVEIKR
binds | DOM26m-50 (other, not shown: small tags and cut ends, human Vκ domain antibody (dAb) selected on mouse ASGPR H1) VL: DIQMTQSPSSLSASVGDRVTITCRASISIYEHLNWYQQKPGKAPTLLIWDSSGLQSGVPSRFSGSGSGTDFTLTISSLQPEDFATYYCVQHHSHPPTFGQGTKVEIKR
binds | DOM26m-52 (protein, not shown: small tags and cut ends) VH: EVQLLESGGGLVQPGGSLRLSCAASGFTFREHPMSWVRQAPGKGLEWVSSISKHGSETYYADSVKGRFTISRDNSKNTLYLQMNSLRAEDTAVYYCVKSVREFDYWGQGTLVTVSS
binds | DOM26m-20 (other, not shown: small tags and cut ends, human Vκ domain antibody (dAb) selected on mouse ASGPR H1; also called Vκ dAb DOM26m-20) VL: DIQMTQSPSSLSASVGDRVTITCRASKYIGSDLYWYQQKPGKAPKLLIGGGSRLQSGVSSRFSGSGSGTDFTLTISSLQPEDFATYYCGQKWARPLTFGQGTKVEIKR
binds | DOM26m-58 (other, not shown: small tags and cut ends, human Vκ domain antibody (dAb) selected on mouse ASGPR H1) VL: DIQMTQSPSSLSASVGDRVTITCRASQPIRNALTWYQQKPGKAPKLLIYRTSHLQSGVPSRFSGSGSGTDFTLTISSLQPEDFATYYCQQTWTMPLTFGQGTKVEIKR
binds | DOM26m-33 (protein, not shown: small tags and cut ends) VH: EVQLLESGGGLVQPGGSLRLSCAASGFTFAKYDMIWVRQAPGKGLEWVSGINHSGSRTYYADSVKGRFTISRDNSKNMLYLQMNSLRAEDTAVYYCAKSGSSFDYWGQGTLVTVSS
binds | DOM26m-29 (other, not shown: small tags and cut ends, human VH domain antibody (dAb) selected on mouse ASGPR H1) VH: EVQLLESGGGLVQPGGSLRLSCAASGFTFEDSGMIWARQAPGKGLEWVSGIASEGSTTYYADSVKGRFTISRDNSKNTLYLQMNSLRAEDTAVYYCAKSGLSFDYWGQGTLVTVSS
